Test results reported in the supplement of paper PMC7666118.
The list shows a part of the results.

The chains behind the UniProt entries cited, without tags or fusion partners. Where a name states a change or a piece, a line headed by the entry shows the natural chain unless it says otherwise.
UniProt Q96BY6: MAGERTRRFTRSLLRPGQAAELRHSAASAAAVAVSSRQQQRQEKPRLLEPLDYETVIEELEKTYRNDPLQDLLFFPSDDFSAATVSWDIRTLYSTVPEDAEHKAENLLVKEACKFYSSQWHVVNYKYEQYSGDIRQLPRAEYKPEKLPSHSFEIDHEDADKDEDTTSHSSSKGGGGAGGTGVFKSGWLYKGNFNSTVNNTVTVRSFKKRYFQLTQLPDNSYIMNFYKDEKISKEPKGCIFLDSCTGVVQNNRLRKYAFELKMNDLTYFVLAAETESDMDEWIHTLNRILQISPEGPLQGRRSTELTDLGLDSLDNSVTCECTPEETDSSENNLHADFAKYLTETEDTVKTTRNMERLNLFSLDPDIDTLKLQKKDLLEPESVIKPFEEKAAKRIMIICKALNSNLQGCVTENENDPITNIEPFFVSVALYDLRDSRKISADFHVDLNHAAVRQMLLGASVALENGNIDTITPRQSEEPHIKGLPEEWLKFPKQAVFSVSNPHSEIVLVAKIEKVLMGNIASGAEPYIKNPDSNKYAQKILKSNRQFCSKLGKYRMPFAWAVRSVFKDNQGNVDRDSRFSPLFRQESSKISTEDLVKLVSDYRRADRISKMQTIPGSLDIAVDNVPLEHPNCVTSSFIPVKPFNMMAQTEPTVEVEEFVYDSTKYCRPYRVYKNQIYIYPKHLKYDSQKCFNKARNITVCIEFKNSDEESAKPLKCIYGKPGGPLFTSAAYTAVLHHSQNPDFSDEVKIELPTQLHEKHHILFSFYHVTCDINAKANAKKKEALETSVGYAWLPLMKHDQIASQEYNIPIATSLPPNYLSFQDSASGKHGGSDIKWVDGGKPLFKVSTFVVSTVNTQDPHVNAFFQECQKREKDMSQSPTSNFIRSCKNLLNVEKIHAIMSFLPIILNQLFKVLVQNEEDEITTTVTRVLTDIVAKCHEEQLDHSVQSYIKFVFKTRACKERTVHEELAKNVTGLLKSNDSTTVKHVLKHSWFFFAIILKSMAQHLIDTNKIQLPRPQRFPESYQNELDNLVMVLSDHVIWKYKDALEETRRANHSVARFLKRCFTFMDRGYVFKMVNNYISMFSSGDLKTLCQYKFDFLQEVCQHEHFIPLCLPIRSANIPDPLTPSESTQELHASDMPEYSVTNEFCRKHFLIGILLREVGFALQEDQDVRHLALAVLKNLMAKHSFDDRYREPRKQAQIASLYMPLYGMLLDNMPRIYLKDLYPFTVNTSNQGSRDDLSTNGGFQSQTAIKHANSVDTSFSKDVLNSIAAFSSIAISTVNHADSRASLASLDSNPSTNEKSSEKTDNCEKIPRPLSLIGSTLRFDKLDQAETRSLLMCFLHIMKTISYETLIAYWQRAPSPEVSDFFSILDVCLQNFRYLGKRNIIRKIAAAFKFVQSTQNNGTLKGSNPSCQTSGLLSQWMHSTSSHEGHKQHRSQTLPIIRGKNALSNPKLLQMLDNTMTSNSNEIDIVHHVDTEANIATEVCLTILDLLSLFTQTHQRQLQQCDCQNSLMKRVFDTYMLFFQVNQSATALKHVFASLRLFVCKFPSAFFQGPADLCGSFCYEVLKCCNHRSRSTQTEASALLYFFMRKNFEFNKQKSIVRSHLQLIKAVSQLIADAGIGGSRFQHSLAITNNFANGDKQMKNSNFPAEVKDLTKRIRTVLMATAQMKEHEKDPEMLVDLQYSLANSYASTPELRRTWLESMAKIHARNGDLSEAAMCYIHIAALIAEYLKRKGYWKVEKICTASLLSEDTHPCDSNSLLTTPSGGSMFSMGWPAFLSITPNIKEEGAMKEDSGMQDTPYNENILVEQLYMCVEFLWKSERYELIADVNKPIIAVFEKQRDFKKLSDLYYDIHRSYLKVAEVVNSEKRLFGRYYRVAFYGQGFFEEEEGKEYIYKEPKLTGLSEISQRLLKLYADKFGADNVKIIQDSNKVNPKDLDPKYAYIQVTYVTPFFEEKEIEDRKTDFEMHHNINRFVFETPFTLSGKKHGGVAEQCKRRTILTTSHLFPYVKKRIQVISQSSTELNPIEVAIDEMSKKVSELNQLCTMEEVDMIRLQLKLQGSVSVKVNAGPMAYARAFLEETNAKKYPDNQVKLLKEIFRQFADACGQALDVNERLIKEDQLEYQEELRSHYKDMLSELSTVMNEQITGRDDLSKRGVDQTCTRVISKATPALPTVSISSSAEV
UniProt Q9Y2G8: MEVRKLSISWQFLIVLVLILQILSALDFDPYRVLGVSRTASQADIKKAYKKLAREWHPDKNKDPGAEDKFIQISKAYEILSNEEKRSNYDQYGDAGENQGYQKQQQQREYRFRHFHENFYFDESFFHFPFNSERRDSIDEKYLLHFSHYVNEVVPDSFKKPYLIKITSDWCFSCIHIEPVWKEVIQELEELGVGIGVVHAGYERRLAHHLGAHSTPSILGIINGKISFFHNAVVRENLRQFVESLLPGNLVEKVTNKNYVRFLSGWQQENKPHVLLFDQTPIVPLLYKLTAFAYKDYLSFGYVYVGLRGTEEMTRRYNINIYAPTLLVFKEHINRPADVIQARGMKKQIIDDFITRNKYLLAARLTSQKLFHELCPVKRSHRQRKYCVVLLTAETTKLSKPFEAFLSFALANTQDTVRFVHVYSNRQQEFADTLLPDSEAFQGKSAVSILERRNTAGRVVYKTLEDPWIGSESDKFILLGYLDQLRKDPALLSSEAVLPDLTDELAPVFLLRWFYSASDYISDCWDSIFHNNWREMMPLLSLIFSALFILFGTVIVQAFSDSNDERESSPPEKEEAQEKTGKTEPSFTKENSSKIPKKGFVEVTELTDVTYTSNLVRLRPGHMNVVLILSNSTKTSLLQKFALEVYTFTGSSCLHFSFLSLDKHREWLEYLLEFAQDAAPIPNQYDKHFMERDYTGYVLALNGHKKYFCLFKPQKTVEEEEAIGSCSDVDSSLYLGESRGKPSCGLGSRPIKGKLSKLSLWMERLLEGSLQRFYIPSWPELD
UniProt Q8NF50: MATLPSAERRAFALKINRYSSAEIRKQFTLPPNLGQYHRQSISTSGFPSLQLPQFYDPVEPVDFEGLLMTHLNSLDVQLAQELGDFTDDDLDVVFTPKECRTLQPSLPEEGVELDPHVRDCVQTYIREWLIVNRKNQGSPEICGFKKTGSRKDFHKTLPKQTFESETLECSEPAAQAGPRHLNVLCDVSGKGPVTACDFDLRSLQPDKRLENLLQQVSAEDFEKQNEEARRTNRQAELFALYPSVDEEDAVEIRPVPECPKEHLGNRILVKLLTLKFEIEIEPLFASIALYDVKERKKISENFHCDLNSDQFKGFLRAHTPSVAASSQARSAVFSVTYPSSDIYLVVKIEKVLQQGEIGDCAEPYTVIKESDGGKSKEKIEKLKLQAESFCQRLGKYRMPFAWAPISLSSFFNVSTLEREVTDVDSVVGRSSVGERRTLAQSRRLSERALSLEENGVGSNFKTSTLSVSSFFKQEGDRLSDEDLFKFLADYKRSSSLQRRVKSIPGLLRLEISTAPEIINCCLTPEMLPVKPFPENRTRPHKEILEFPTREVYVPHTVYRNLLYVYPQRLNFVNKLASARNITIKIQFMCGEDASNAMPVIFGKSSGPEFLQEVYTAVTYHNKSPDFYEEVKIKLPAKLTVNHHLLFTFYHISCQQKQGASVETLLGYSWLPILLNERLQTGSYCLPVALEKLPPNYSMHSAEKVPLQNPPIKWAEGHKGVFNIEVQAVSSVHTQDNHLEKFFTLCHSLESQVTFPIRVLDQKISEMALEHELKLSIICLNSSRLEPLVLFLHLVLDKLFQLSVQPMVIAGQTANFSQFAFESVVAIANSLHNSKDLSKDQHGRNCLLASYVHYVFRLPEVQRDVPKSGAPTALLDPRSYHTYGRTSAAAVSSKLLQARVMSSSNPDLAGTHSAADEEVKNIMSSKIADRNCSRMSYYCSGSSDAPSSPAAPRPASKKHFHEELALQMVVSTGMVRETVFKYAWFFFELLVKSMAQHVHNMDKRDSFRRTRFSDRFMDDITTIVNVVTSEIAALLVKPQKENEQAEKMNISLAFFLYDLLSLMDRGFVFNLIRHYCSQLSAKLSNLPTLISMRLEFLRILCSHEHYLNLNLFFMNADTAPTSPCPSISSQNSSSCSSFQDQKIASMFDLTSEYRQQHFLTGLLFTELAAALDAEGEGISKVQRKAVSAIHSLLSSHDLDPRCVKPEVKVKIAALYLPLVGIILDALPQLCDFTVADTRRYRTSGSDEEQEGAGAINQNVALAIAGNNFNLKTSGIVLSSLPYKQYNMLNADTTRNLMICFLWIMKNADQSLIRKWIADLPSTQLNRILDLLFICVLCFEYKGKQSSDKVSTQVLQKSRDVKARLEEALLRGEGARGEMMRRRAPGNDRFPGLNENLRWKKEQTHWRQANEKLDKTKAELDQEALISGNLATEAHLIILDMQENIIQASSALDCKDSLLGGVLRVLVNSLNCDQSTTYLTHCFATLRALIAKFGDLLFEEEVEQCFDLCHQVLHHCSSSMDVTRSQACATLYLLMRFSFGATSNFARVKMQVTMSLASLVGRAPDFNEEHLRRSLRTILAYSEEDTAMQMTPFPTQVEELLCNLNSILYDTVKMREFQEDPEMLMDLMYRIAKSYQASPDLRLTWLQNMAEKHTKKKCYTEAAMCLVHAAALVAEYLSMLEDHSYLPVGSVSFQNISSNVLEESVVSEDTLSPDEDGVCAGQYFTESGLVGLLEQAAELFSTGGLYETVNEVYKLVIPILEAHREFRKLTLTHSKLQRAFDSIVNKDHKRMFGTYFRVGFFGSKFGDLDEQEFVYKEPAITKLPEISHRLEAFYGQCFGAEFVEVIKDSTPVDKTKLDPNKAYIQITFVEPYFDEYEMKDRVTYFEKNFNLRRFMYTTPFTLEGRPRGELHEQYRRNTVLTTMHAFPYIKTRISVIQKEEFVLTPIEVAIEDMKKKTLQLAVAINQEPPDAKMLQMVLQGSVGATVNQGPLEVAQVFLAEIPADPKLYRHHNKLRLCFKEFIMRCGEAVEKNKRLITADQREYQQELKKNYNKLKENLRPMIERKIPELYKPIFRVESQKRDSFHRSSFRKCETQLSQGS
UniProt P25685, whole entry: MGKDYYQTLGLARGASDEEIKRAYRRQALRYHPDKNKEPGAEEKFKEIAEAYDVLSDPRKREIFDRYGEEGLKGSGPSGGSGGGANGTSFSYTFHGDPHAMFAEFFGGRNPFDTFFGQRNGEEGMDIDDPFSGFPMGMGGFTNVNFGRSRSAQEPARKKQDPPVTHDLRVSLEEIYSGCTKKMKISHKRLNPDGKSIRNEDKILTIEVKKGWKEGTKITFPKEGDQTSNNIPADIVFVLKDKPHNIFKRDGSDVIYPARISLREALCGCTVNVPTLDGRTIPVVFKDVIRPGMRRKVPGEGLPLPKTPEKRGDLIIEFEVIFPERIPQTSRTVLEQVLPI
UniProt Q9H4E7, whole entry: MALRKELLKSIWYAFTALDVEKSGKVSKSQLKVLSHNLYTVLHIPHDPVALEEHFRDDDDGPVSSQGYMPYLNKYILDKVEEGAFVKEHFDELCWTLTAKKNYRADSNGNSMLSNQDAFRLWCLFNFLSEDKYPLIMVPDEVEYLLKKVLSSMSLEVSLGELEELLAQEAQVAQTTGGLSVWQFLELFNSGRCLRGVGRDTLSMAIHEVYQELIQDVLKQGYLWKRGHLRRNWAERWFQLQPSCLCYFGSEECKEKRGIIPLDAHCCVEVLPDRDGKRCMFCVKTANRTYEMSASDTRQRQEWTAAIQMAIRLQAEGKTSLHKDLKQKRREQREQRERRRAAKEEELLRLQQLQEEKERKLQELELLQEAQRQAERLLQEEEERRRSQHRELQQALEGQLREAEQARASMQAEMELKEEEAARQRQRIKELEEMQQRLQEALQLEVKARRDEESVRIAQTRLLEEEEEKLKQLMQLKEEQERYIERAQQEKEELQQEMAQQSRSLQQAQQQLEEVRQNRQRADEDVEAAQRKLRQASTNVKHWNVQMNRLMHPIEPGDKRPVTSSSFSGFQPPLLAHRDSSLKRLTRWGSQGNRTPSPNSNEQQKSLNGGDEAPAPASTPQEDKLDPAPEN
UniProt Q9NY93: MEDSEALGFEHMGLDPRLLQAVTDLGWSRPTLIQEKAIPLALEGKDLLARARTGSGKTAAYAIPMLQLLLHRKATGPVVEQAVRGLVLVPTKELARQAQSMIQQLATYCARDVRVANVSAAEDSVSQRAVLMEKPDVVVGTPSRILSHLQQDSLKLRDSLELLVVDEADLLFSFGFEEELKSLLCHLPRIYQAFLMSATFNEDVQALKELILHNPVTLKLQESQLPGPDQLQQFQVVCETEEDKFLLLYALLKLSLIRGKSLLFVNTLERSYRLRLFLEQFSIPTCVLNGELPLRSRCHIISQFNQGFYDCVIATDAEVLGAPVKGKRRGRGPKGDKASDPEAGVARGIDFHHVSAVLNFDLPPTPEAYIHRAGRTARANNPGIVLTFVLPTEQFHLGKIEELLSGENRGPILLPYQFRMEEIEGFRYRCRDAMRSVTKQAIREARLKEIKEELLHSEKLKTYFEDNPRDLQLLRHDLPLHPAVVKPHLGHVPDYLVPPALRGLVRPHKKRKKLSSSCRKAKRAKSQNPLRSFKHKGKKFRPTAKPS

Compound: COc1ccc(Cn2ccc3cc(C)c(C(=O)NO)cc32)cc1
Assay: dose-dependent thermal stabilisation call (2D-TPP, DLPTP, 10% FDR) (binary (1 = stabilised)); higher = stabilised by the compound
Conditions: system: HL-60 intact cells; concentration range 0.04-10 µM
Experimental: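 2D thermal proteome profiling in intact HL-60 cells treated with BRD-3811 (0, 0.04, 0.29, 2, 10 uM) for 90 min at 37 C, then heated 3 min at one of 12 temperatures (42-63.9 C). Soluble protein was quantified by TMT10 MS. The value is the DLPTP call of the paper: dose-dependent thermal stabilisation over all temperatures at 10% FDR (F-test of a dose-response against a flat model); one experiment, one call per tested protein.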

Row | Target | dose-dependent thermal stabilisation call
1 | DOCK10 (UniProt Q96BY6) | inactive: 0
2 | CSGLCA-T | inactive: 0
3 | DNAJC16 (UniProt Q9Y2G8) | inactive: 0
4 | DOCK8 (UniProt Q8NF50) | inactive: 0
5 | CYB5R1 (UniProt Q9UHQ9) | inactive: 0
6 | DNAJB1 (UniProt P25685) | inactive: 0
7 | DKC1 (UniProt O60832) | inactive: 0
8 | DEF6 (UniProt Q9H4E7) | inactive: 0
9 | DDX56 (UniProt Q9NY93) | inactive: 0

As a working copy, some entries already given.
Row | Target | dose-dependent thermal stabilisation call
6 | DNAJB1 (UniProt P25685) | inactive: 0
7 | DKC1 (UniProt O60832) | inactive: 0
